± gives the standard deviation of the averaged measurements. Values are relative to the signal before dosing, not to a vehicle control; the signal also falls without drug.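 Fibroblast labels name human fibroblasts: mostly primary ones from tissues such as uterus (C12385, HUF), lung (H6013), bone (Hs27A), adrenal (HADF) and skin (WS1), plus mammary HMF and breast cancer-associated Hs343T. The cancer cells are basal-like or mesenchymal-like triple-negative breast cancer lines. The paper calls a changed response a hit when it shifts by more than 3x the replicate standard deviation. The tissue of the other fibroblasts is not given here.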
System: BT20
Assay: relative JC-1 red fluorescence (viability) vs pre-drug, coculture with fibroblast (fraction); higher = more viable cancer cells
Procedure: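 JC-1 labelled TNBC cells cocultured 1:1 (1,500 cells each) with CellTrace Violet stained primary or stromal fibroblasts in 384-well plates in FluoroBrite medium, treated with one of 42 anticancer drugs at 0.1, 1, 10 or 100 uM. JC-1 red fluorescence (mitochondrial integrity in cancer cells only) was read by plate reader every 8 h for 72 h. Values are normalised to each well's pre-drug value. The stock of one drug was tenfold lower, so its dose labels may be too high.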

COc1cc([C@@H]2c3cc4c(cc3[C@@H](O[C@@H]3O[C@@H]5CO[C@@H](c6cccs6)O[C@H]5[C@H](O)[C@H]3O)[C@H]3COC(=O)[C@H]23)OCO4)cc(OC)c1O [Teniposide]
relative JC-1 red fluorescence
Details | 8 h | 16 h | 24 h | 32 h | 40 h | 48 h | 56 h | 64 h | 72 h
10 µM, coculture fibroblast: C12385 | 0.876 ± 0.028 | 0.819 ± 0.013 | 0.781 ± 0.022 | 0.72 ± 0.069 | 0.673 ± 0.066 | 0.664 ± 0.087 | 0.649 ± 0.095 | 0.646 ± 0.096 | 0.638 ± 0.1
10 µM, coculture fibroblast: H6013 | 0.955 ± 0.032 | 0.885 ± 0.01 | 0.8 ± 0.0086 | 0.698 ± 0.031 | 0.647 ± 0.059 | 0.613 ± 0.065 | 0.603 ± 0.062 | 0.577 ± 0.045 | 0.562 ± 0.052
10 µM, coculture fibroblast: H6019 | 0.8716 ± 0.0034 | 0.813 ± 0.035 | 0.758 ± 0.12 | 0.654 ± 0.11 | 0.607 ± 0.13 | 0.609 ± 0.14 | 0.597 ± 0.14 | 0.599 ± 0.14 | 0.593 ± 0.14
10 µM, coculture fibroblast: H6076 | 0.983 ± 0.016 | 0.8944 ± 0.0041 | 0.79 ± 0.056 | 0.753 ± 0.094 | 0.722 ± 0.14 | 0.701 ± 0.16 | 0.716 ± 0.18 | 0.722 ± 0.18 | 0.7 ± 0.19
10 µM, coculture fibroblast: H6231 | 0.745 ± 0.054 | 0.905 ± 0.026 | 0.756 ± 0.044 | 0.6732 ± 0.0049 | 0.6315 ± 0.0037 | 0.581 ± 0.014 | 0.539 ± 0.019 | 0.526 ± 0.034 | 0.511 ± 0.031
10 µM, coculture fibroblast: HADF | 0.844 ± 0.18 | 0.948 ± 0.017 | 0.883 ± 0.043 | 0.781 ± 0.034 | 0.744 ± 0.076 | 0.709 ± 0.084 | 0.719 ± 0.097 | 0.717 ± 0.1 | 0.694 ± 0.089
10 µM, coculture fibroblast: HCFa | 0.964 ± 0.02 | 0.9328 ± 0.0044 | 0.898 ± 0.018 | 0.815 ± 0.033 | 0.784 ± 0.024 | 0.757 ± 0.036 | 0.765 ± 0.067 | 0.77 ± 0.092 | 0.76 ± 0.12
10 µM, coculture fibroblast: HCPF | 0.935 ± 0.076 | 0.936 ± 0.031 | 0.854 ± 0.034 | 0.786 ± 0.039 | 0.733 ± 0.046 | 0.687 ± 0.029 | 0.662 ± 0.026 | 0.663 ± 0.048 | 0.631 ± 0.045
10 µM, coculture fibroblast: HHSteC | 0.918 ± 0.015 | 0.8589 ± 0.00092 | 0.827 ± 0.013 | 0.726 ± 0.018 | 0.687 ± 0.035 | 0.652 ± 0.045 | 0.644 ± 0.055 | 0.634 ± 0.053 | 0.611 ± 0.059
10 µM, coculture fibroblast: HMF | 0.817 ± 0.16 | 0.93 ± 0.03 | 0.813 ± 0.029 | 0.728 ± 0.066 | 0.685 ± 0.07 | 0.638 ± 0.08 | 0.621 ± 0.068 | 0.595 ± 0.08 | 0.571 ± 0.099
10 µM, coculture fibroblast: HPFa | 0.9387 ± 0.0058 | 0.911 ± 0.011 | 0.908 ± 0.045 | 0.799 ± 0.04 | 0.793 ± 0.04 | 0.759 ± 0.038 | 0.759 ± 0.021 | 0.743 ± 0.029 | 0.709 ± 0.032
10 µM, coculture fibroblast: HUF | 0.892 ± 0.014 | 0.8306 ± 0.002 | 0.763 ± 0.03 | 0.675 ± 0.068 | 0.637 ± 0.075 | 0.608 ± 0.097 | 0.608 ± 0.1 | 0.603 ± 0.11 | 0.596 ± 0.11
10 µM, coculture fibroblast: Hs5 | 0.872 ± 0.14 | 0.936 ± 0.05 | 0.88998 ± 0.00017 | 0.8683 ± 0.0072 | 0.835 ± 0.029 | 0.817 ± 0.045 | 0.827 ± 0.046 | 0.813 ± 0.034 | 0.801 ± 0.025
10 µM, coculture fibroblast: Hs27A | 0.898 ± 0.021 | 0.849 ± 0.01 | 0.809 ± 0.14 | 0.885 ± 0.075 | 0.849 ± 0.094 | 0.843 ± 0.1 | 0.852 ± 0.1 | 0.84 ± 0.098 | 0.809 ± 0.093
10 µM, coculture fibroblast: Hs343T | 0.832 ± 0.15 | 0.916 ± 0.055 | 0.7514 ± 0.0011 | 0.655 ± 0.045 | 0.593 ± 0.098 | 0.559 ± 0.12 | 0.531 ± 0.12 | 0.523 ± 0.13 | 0.501 ± 0.13
10 µM, coculture fibroblast: WS1 | 0.883 ± 0.018 | 0.822 ± 0.018 | 0.8 ± 0.015 | 0.724 ± 0.034 | 0.675 ± 0.059 | 0.658 ± 0.065 | 0.654 ± 0.073 | 0.648 ± 0.082 | 0.65 ± 0.085
100 µM, coculture fibroblast: C12385 | 0.9152 ± 0.0072 | 0.858 ± 0.011 | 0.849 ± 0.052 | 0.843 ± 0.11 | 0.839 ± 0.12 | 0.862 ± 0.13 | 0.855 ± 0.15 | 0.851 ± 0.19 | 0.843 ± 0.19
100 µM, coculture fibroblast: H6013 | 0.9826 ± 0.0034 | 0.93 ± 0.05 | 0.847 ± 0.14 | 0.853 ± 0.1 | 0.825 ± 0.093 | 0.909 ± 0.021 | 0.851 ± 0.067 | 0.792 ± 0.13 | 0.821 ± 0.07
100 µM, coculture fibroblast: H6019 | 0.911 ± 0.012 | 0.863 ± 0.042 | 0.8937 ± 0.005 | 0.866 ± 0.016 | 0.884 ± 0.013 | 0.918 ± 0.055 | 0.911 ± 0.12 | 0.784 ± 0.046 | 0.864 ± 0.071
100 µM, coculture fibroblast: H6076 | 0.985 ± 0.015 | 0.93 ± 0.017 | 0.874 ± 0.039 | 0.835 ± 0.05 | 0.833 ± 0.067 | 0.829 ± 0.072 | 0.861 ± 0.076 | 0.898 ± 0.049 | 0.89 ± 0.071
100 µM, coculture fibroblast: H6231 | 0.853 ± 0.15 | 0.923 ± 0.018 | 0.837 ± 0.014 | 0.779 ± 0.022 | 0.801 ± 0.025 | 0.84 ± 0.028 | 0.874 ± 0.03 | 0.858 ± 0.026 | 0.849 ± 0.04
100 µM, coculture fibroblast: HADF | 0.785 ± 0.029 | 0.747 ± 0.02 | 0.774 ± 0.053 | 0.864 ± 0.14 | 0.922 ± 0.095 | 0.905 ± 0.079 | 0.846 ± 0.19 | 0.899 ± 0.03 | 0.95 ± 0.047
100 µM, coculture fibroblast: HCFa | 0.929 ± 0.058 | 0.856 ± 0.16 | 0.869 ± 0.16 | 0.84 ± 0.16 | 0.706 ± 0.017 | 0.774 ± 0.1 | 0.739 ± 0.045 | 0.735 ± 0.052 | 0.772 ± 0.065
100 µM, coculture fibroblast: HCPF | 0.915 ± 0.025 | 0.9557 ± 0.0072 | 0.904 ± 0.013 | 0.851 ± 0.0094 | 0.825 ± 0.044 | 0.798 ± 0.043 | 0.802 ± 0.075 | 0.793 ± 0.087 | 0.77 ± 0.13
100 µM, coculture fibroblast: HHSteC | 0.961 ± 0.037 | 0.853 ± 0.14 | 0.835 ± 0.15 | 0.907 ± 0.054 | 0.905 ± 0.031 | 0.902 ± 0.03 | 0.928 ± 0.024 | 0.933 ± 0.0097 | 0.9176 ± 0.0057
100 µM, coculture fibroblast: HMF | 0.9853 ± 0.0013 | 0.9455 ± 0.0061 | 0.8722 ± 0.0029 | 0.8107 ± 0.0076 | 0.791 ± 0.031 | 0.771 ± 0.041 | 0.782 ± 0.055 | 0.786 ± 0.035 | 0.772 ± 0.025
100 µM, coculture fibroblast: HPFa | 0.783 ± 0.12 | 0.816 ± 0.15 | 0.879 ± 0.053 | 0.897 ± 0.09 | 0.94 ± 0.083 | 0.764 ± 0.08 | 0.858 ± 0.024 | 0.757 ± 0.0074 | 0.76 ± 0.057
100 µM, coculture fibroblast: HUF | 0.948 ± 0.026 | 0.934 ± 0.051 | 0.941 ± 0.066 | 0.904 ± 0.088 | 0.921 ± 0.11 | 0.794 ± 0.076 | 0.788 ± 0.1 | 0.863 ± 0.017 | 0.797 ± 0.12
100 µM, coculture fibroblast: Hs5 | 0.802 ± 0.1 | 0.97169 ± 0.00063 | 0.935 ± 0.029 | 0.897 ± 0.058 | 0.908 ± 0.069 | 0.895 ± 0.085 | 0.9 ± 0.085 | 0.887 ± 0.094 | 0.879 ± 0.089
100 µM, coculture fibroblast: Hs27A | 0.7482 ± 0.0037 | 0.87 ± 0.033 | 0.808 ± 0.15 | 0.872 ± 0.063 | 0.732 ± 0.023 | 0.753 ± 0.051 | 0.891 ± 0.044 | 0.71 ± 0.02 | 0.9 ± 0.04
100 µM, coculture fibroblast: Hs343T | 0.85 ± 0.051 | 0.931 ± 0.0066 | 0.832 ± 0.021 | 0.744 ± 0.015 | 0.692 ± 0.019 | 0.654 ± 0.032 | 0.678 ± 0.043 | 0.702 ± 0.03 | 0.73 ± 0.028
100 µM, coculture fibroblast: WS1 | 0.885 ± 0.0028 | 0.8256 ± 0.0043 | 0.818 ± 0.005 | 0.773 ± 0.015 | 0.736 ± 0.037 | 0.755 ± 0.033 | 0.766 ± 0.021 | 0.779 ± 0.0083 | 0.794 ± 0.011
